# According to PubChem BioAssay AID1671190 (National Center for Advancing Translational Sciences (NCATS), 2021):
# Sequences of proteins named here, by UniProt entry; tags and fusion partners are left off. A change or cut given only in a name is not applied to a line headed by its entry.
# UniProt P18054: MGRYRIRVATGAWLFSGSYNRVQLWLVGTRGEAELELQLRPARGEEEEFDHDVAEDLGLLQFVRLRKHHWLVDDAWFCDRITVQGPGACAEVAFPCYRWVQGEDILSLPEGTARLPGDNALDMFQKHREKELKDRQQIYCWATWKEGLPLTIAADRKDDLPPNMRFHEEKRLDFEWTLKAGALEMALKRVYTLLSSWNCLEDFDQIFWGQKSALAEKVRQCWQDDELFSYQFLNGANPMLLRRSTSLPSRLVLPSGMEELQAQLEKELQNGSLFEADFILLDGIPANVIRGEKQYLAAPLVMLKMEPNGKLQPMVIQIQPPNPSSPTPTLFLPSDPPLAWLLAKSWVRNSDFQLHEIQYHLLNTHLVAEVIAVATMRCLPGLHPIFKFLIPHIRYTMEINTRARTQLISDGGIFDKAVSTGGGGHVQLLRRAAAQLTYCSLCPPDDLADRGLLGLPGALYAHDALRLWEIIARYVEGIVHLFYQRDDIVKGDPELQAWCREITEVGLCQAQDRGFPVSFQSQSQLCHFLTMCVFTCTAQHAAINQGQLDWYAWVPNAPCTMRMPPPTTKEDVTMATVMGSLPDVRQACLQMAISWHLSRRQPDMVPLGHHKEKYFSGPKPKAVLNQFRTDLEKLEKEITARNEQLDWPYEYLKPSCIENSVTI
# “And” between values parts separate entries of the source, which are not always exact repeats. Equal values may be shown once. Hit rate of the full screen: of about 580,000 compounds, about 6,100 (1.1%) were called active. The shares of active, inactive and inconclusive entries below differ from those in the screen. The call rests on the fitted dose curve; in most records, active means well fitted inhibition curve with a large enough effect; inconclusive means small, poorly fitted or top-dose-only effect, or another doubt; inactive means no such curve, though single readings can be large or run the other way. Where the call is inconclusive, the potency comes from a doubtful curve fit.
# Target: Polyunsaturated fatty acid lipoxygenase ALOX12 (Homo sapiens) (UniProt P18054)
# Experiment: Primary qHTS assay for inhibitors of human arachidonate 12S-lipoxygenase (ALOX12): Round 2
# Conditions: purified 12hLO, xylenol orange hydroperoxide absorbance; activity change, negative = inhibition: at 108 µM (top of the series) unless noted
# In short: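 Purified human 12hLO (150 nM final) in 25 mM Hepes, 0.01% Triton X-100, pH 7.0 was preincubated 15 min at room temperature with compound. Then 40 uM arachidonic acid was added, 30 min. Hydroperoxide was read by Fe-XO absorbance ratio 573/405 nm.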
# On the % scale 0 is the no-effect control and ±100 the full control effect; potency means the concentration at half of the fitted maximal effect.
SMILES,"activity change, negative = inhibition",Potency
COc1ccc(CNC(=O)c2cccc(C)c2[N+](=O)[O-])cc1,inactive: -1.47%,–
COc1ccc(N2CCN(CCNC(=O)Nc3cc(Cl)ccc3OC)CC2)cc1,–,"inconclusive: 3.98 µM [inhibitor, full curve, poor fit]"
Cc1nc(CCNC(=O)c2cnc(-c3cccnc3)nc2)cc(=O)[nH]1,–,"inconclusive: 4.47 µM [inhibitor, full curve]"
CSCCC(NS(=O)(=O)c1cccs1)C(=O)NCc1ccc(C)cc1 (centres undefined),inactive: -16%,–
Cc1ccc(N2CCC(NC(=O)Cc3cccs3)C2=O)cc1C (centres undefined),–,"inconclusive: 31.6 µM [inhibitor, partial curve, poor fit]"
O=C(CCl)Nc1nc(-c2ccco2)c(-c2ccco2)s1,–,"inconclusive: 44.7 µM [inhibitor, partial curve, poor fit]"
N#Cc1ccc(N2C(=O)[C@@H]3C(C(=O)c4cnccn4)=NN[C@@H]3C2=O)cc1,–,"inconclusive: 44.7 µM [inhibitor, partial curve, poor fit]"
CCCC(=O)NCC1CC2c3ccccc3C1c1ccccc12 (centres undefined),–,"inconclusive: 12.6 µM [inhibitor, full curve, poor fit]"
Cc1ccc(Nc2nnc(SCc3cc(=O)n4ccsc4n3)s2)c(C)c1,–,"inconclusive: 89.1 µM [inhibitor, partial curve, poor fit]"
COc1ccc2[nH]cc(C(C(=O)O)N3CCCCCC3)c2c1 (centres undefined),–,"inconclusive: 50.1 µM [inhibitor, partial curve, poor fit]"
COCCN(C(=O)COC(=O)CNC(=O)c1cccs1)c1c(N)n(Cc2ccccc2)c(=O)[nH]c1=O,–,"inconclusive: 50.1 µM [inhibitor, partial curve, poor fit]"
CCOC(=O)c1cccn1C1C(=O)N(Cc2ccc(Cl)nc2)c2ccc(Cl)cc21 (centres undefined),–,"inconclusive: 50.1 µM [inhibitor, partial curve, poor fit]"
N=c1c2c(ncn1CCN1CCOCC1)Oc1ccc3ccccc3c1C2c1ccccc1 (centres undefined),inactive: 0%,–
CCn1c(N2CCN(CC(=O)c3c[nH]c4ccccc34)CC2)nc2c1c(=O)[nH]c(=O)n2C,–,"inconclusive: 11.2 µM [inhibitor, full curve, poor fit]"
COc1ccc(N2C(=O)N3[C@H](c4ccc(Cl)cc4)[C@@H]4C(=O)N(C5CCCCC5)C(=O)[C@@H]4[C@]3(C)C2=O)cc1,inactive: -19.9%,–
CCC(C)C(NC(=O)c1ccc(C(C)C)cc1)C(=O)O (centres undefined),–,"inconclusive: 35.5 µM [inhibitor, partial curve]"
CCn1c2ccccc2c2nnc(SCCN3CCCCC3)nc21,–,"inconclusive: 112 µM [inhibitor, partial curve, poor fit] and inconclusive: 14.1 µM [inhibitor, full curve]"
O=C(NC(=S)Nc1cccc(Cl)c1N1CCCC1)c1ccc(-c2cccc([N+](=O)[O-])c2)o1,–,"inconclusive: 12.6 µM [inhibitor, full curve, poor fit]"
CCc1ccc(CNC(=O)c2cccc(-n3cnc4cccnc43)c2C)cc1,–,"inconclusive: 126 µM [inhibitor, partial curve, poor fit]"
Cc1ccc2c(n1)N(C)[C@H](CO)CCN(C1CCN(C)CC1)C2,inactive: 5.63% [at 176 µM],–

# Random excerpt: 3 records from the list, in no set order.
SMILES,"activity change, negative = inhibition",Potency
COc1ccc(N2C(=O)N3[C@H](c4ccc(Cl)cc4)[C@@H]4C(=O)N(C5CCCCC5)C(=O)[C@@H]4[C@]3(C)C2=O)cc1,inactive: -19.9%,–
O=C(NC(=S)Nc1cccc(Cl)c1N1CCCC1)c1ccc(-c2cccc([N+](=O)[O-])c2)o1,–,"inconclusive: 12.6 µM [inhibitor, full curve, poor fit]"
COc1ccc(CNC(=O)c2cccc(C)c2[N+](=O)[O-])cc1,inactive: -1.47%,–

# The list continues:

SMILES,"activity change, negative = inhibition",Potency
COC(=O)NCCC(c1ccccc1)c1ccccc1,–,"inconclusive: 112 µM [inhibitor, partial curve, poor fit]"
COC(=O)[C@@]1(Cc2ccccc2)[C@H]2C(=O)N(Cc3ccccc3)C(=O)[C@H]2[C@H]2CN=C(SCC3CC3)N21,–,"inconclusive: 44.7 µM [inhibitor, partial curve, poor fit]"
O=C(NC[C@H]1OC[C@@H](NC2CCCCC2)[C@@H]1O)c1ccc(F)cc1,–,"inconclusive: 25.1 µM [inhibitor, full curve]"
CCN(CC)c1ccc(NC(=O)c2ccc3nc[nH]c3c2)cc1,–,"inconclusive: 44.7 µM [inhibitor, partial curve, poor fit]"
O=C(Cc1ccccc1[N+](=O)[O-])NCc1ccncc1,inactive: -6.18%,–
Nc1nc(=S)c2[nH]c(=S)[nH]c2[nH]1,–,active: 7.94 µM
Cc1ccc(NC(=O)Nc2c(C)n(C)n(-c3ccccc3)c2=O)cc1,inactive: 4.33%,–
COCc1cnc2c(c1SCc1cc(OC)cc(OC)c1)c(=O)n(C)c(=O)n2C,–,"inconclusive: 141 µM [inhibitor, partial curve, poor fit]"
CCOc1ccccc1NC(=O)CC1SC(=N)N(c2ccccc2)C1=O (centres undefined),inactive: -1.35%,–
CC(C)(C)N1Cc2nnn(CC3CCCCC3)c2-c2cc(F)ccc2S1(=O)=O,–,"inconclusive: 35.5 µM [inhibitor, partial curve, poor fit]"
COc1ccc(OC)c(CN2CCN(C(=O)c3cccc(S(=O)(=O)Nc4ccc(F)cc4)c3)CC2)c1,–,"inconclusive: 79.4 µM [inhibitor, single point]"
Cc1ccc(-c2csc(Nc3ccccn3)n2)cc1C,–,active: 31.6 µM
O=C(CSc1nnc(CNC(=O)c2ccc(F)cc2)o1)Nc1ccc2c(c1)OCCO2,–,"inconclusive: 8.91 µM [inhibitor, partial curve, poor fit]"
CN1CCN(c2oc(/C=C/c3ccccc3)nc2C#N)CC1,–,"inconclusive: 126 µM [inhibitor, partial curve, poor fit]"
Cc1ccc2c(=O)[nH]c(Nc3nc(C)cc(-c4ccccc4)n3)nc2c1,–,"inconclusive: 0.631 µM [inhibitor, full curve, poor fit]"
O=S(=O)(NCc1ccccc1)c1ccc(NC(=S)NCc2ccco2)cc1,–,"inconclusive: 50.1 µM [inhibitor, partial curve, poor fit]"
COc1ccccc1/C=C1\SC(=S)N(N2C(=O)CCCC2=O)C1=O,–,"inconclusive: 56.2 µM [inhibitor, partial curve, poor fit]"
Cc1ccc(-n2nc3c(c2NC(=O)CC(C)C)CS(=O)C3)cc1 (centres undefined),–,active: 39.8 µM
CSCC[C@@H]1NC(=O)c2cc(NC(=O)c3cc(-c4cccnc4)n[nH]3)ccc2NC1=O,–,"inconclusive: 8.91 µM [inhibitor, full curve, poor fit]"
